Experimental data: PubChem BioAssay AID1224830 (NIAID, 2016)
Purpose: 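Genes whose knock-down alters the TNF-alpha reporter response to LPS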 (primary screen). Cells: human THP-1 monocytic leukaemia cells, TNF dual-luciferase reporter clone, PMA-differentiated to macrophage-like cells. Reagents: siRNA pool against human genes, 50 nM. Time to read-out: LPS for 4 h, given about 3 days after siRNA transfection. Challenge: bacterial LPS (TLR4 ligand), 10 ng/ml. Detection: 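Ratio of firefly to renilla light, scaled to the plate median and expressed as a robust z-score per replicate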. Scale: TNF reporter robust z-score: higher = stronger TNF reporter response to LPS. Active means: 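Each well counts as active if its z-score is over 2.8 or under -1.5; controls are left without a call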.
Shown is an unselected part of about 18,000 reagents tested. Of all reagents, about 2,900 (16%) are marked active. 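Calls are made per well; low scores hint the gene aids the LPS response, high scores that it dampens it.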 Repeated entries: four replicate wells of each siRNA pool. No sequences are given here.

no.	gene knocked down	TNF reporter robust z-score	outcome
1	COMMD7	1.19	inactive
2	COMMD7	-0.52	inactive
3	COMMD7	-0.02	inactive
4	COMMD7	-0.04	inactive
5	TMEM101	-0.44	inactive
6	TMEM101	-0.82	inactive
7	TMEM101	-0.93	inactive
8	TMEM101	-1.42	inactive
9	ADPRHL1	-1.9	active
10	ADPRHL1	-1.57	active
11	ADPRHL1	-1.95	active
12	ADPRHL1	-1.59	active
13	PDLIM3	-0.56	inactive
14	PDLIM3	0.43	inactive
15	PDLIM3	-0.34	inactive
16	PDLIM3	0.92	inactive
17	EFNA3	0.59	inactive
18	EFNA3	1.31	inactive
19	EFNA3	0.78	inactive
20	EFNA3	1.02	inactive
21	TMEM63A	-0.53	inactive
22	TMEM63A	-0.35	inactive
23	TMEM63A	-0.43	inactive
24	TMEM63A	-0.49	inactive
25	SACS	0.1	inactive
26	SACS	0.25	inactive
27	SACS	0.18	inactive
28	SACS	0.19	inactive
29	PPARA	0.55	inactive
30	PPARA	-0.44	inactive
31	PPARA	0.73	inactive
32	DBH	0.16	inactive
33	DBH	2.08	inactive
34	DBH	1.88	inactive
35	DBH	5.34	active
36	MPIG6B	-0.54	inactive
37	MPIG6B	-0.46	inactive
38	MPIG6B	-0.53	inactive
39	MPIG6B	-0.01	inactive
40	CYS1	-1.58	active
41	CYS1	-1.11	inactive
42	CYS1	-1.34	inactive
43	CYS1	-0.68	inactive
44	ARHGAP8	-0.07	inactive
45	ARHGAP8	0.21	inactive
46	ARHGAP8	-0.34	inactive
47	ARHGAP8	0.73	inactive

In a second layout: entries from further up.
gene knocked down | TNF reporter robust z-score | outcome
TMEM63A | -0.43 | inactive
TMEM63A | -0.49 | inactive
SACS | 0.1 | inactive
SACS | 0.25 | inactive
SACS | 0.18 | inactive
SACS | 0.19 | inactive
PPARA | 0.55 | inactive
PPARA | -0.44 | inactive
PPARA | 0.73 | inactive
DBH | 0.16 | inactive
DBH | 2.08 | inactive
DBH | 1.88 | inactive
DBH | 5.34 | active
MPIG6B | -0.54 | inactive
MPIG6B | -0.46 | inactive
MPIG6B | -0.53 | inactive
MPIG6B | -0.01 | inactive
CYS1 | -1.58 | active
CYS1 | -1.11 | inactive
CYS1 | -1.34 | inactive
CYS1 | -0.68 | inactive
ARHGAP8 | -0.07 | inactive
ARHGAP8 | 0.21 | inactive
ARHGAP8 | -0.34 | inactive

More entries:
no.	gene knocked down	TNF reporter robust z-score	outcome
48	SLC66A3	-0.52	inactive
49	SLC66A3	0.32	inactive
50	SLC66A3	-0.67	inactive
51	SLC66A3	-0.07	inactive
52	RPS4Y2	-1.59	active
53	RPS4Y2	-1.63	active
54	RPS4Y2	-1.11	inactive
55	RPS4Y2	-1.08	inactive
56	HTR7	-0.4	inactive
57	HTR7	-0.28	inactive
58	HTR7	-0.45	inactive
59	HTR7	1.21	inactive
60	NPTX2	1.66	inactive
61	NPTX2	0.43	inactive
62	NPTX2	0.22	inactive
63	NPTX2	1.16	inactive
64	OR5W2	-1.78	active
65	OR5W2	-1.05	inactive
66	OR5W2	0.17	inactive
67	OR5W2	-0.27	inactive
68	THSD1	-0.74	inactive
69	THSD1	-0.7	inactive
70	THSD1	-0.91	inactive
71	THSD1	-0.84	inactive
72	TRIM24	0.97	inactive
73	TRIM24	-0.29	inactive
74	TRIM24	3.83	active
75	TRIM24	0.72	inactive
76	UFD1	0.11	inactive
77	UFD1	1.43	inactive
78	UFD1	1.71	inactive
79	UFD1	1.6	inactive
80	RNF144A	1.35	inactive
81	RNF144A	-0.25	inactive
82	RNF144A	0.73	inactive
83	RNF144A	1.74	inactive
84	GPR19	-1.35	inactive
85	GPR19	-1.17	inactive
86	GPR19	-0.47	inactive
87	GPR19	-1.24	inactive
88	EEF1D	0.1	inactive
89	EEF1D	0.07	inactive
90	EEF1D	-0.5	inactive
91	EEF1D	1.24	inactive
92	RPL13A	0.84	inactive
93	RPL13A	0.72	inactive
94	RPL13A	1.32	inactive
95	RPL13A	-1.3	inactive
96	EXO1	0.74	inactive
97	EXO1	3.9	active
98	EXO1	1.13	inactive
99	EXO1	2.16	inactive
100	FAM221B	1.82	inactive
101	FAM221B	6.36	active
102	FAM221B	5.13	active
103	FAM221B	3.94	active
104	H1-5	-1.14	inactive
105	H1-5	-1.28	inactive
106	H1-5	-1.31	inactive
107	H1-5	-0.98	inactive
108	PHF6	-0.13	inactive
109	PHF6	-0.74	inactive
110	PHF6	0.82	inactive
111	PHF6	3.31	active
112	KCNS1	-1.1	inactive
113	KCNS1	0.17	inactive
114	KCNS1	0.67	inactive
115	KCNS1	0.52	inactive
116	CIMAP1A	1.02	inactive
117	CIMAP1A	2.2	inactive
118	CIMAP1A	2.27	inactive
119	CIMAP1A	3.52	active
120	BAIAP2	0.72	inactive
121	BAIAP2	2.13	inactive
122	BAIAP2	1.66	inactive
123	BAIAP2	2.52	inactive
124	UBTFL7	-1.59	active
125	UBTFL7	-0.38	inactive
126	UBTFL7	0.31	inactive
127	UBTFL7	-0.39	inactive
128	JKAMP	-1	inactive
129	JKAMP	-0.92	inactive
130	JKAMP	-0.43	inactive
131	JKAMP	-0.45	inactive
132	MYRIP	0.12	inactive
133	MYRIP	-0.72	inactive
134	MYRIP	0.24	inactive
135	MYRIP	-0.45	inactive
136	CNTN2	-1.25	inactive
137	CNTN2	-1.51	active
138	CNTN2	-1.22	inactive
139	CNTN2	-1.32	inactive
140	KLK12	-0.41	inactive
141	KLK12	-0.36	inactive
142	KLK12	-0.3	inactive
143	KLK12	-0.76	inactive
